PubChem BioAssay AID1259308 – NCATS – 2017
In all, the deposit lists about 59,000 reagents; shown is an unselected part. Of all reagents, about 1,510 (2.6%) are marked active. 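Calls use total luciferase alone and ignore viability, so some active siRNAs may act by altering cell number.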 Entries without a mark were called inactive. Further read-outs or replicates are left out here. Reagent sequences are not shown.

Test: 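Genes whose loss raises luciferase production in HEK293 cells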 (primary screen)
System: human HEK293 embryonic kidney cells stably expressing firefly luciferase (HEK-CMV-Luc2-Hygro)
Knock-down reagent: single siRNA against human genes, 0.8 pmol siRNA per well
Duration: 72 h
Measured: 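Luciferase light (ONE-Glo) measured on one replicate plate set and viability (CellTiter-Glo) on the other, scaled to a negative control siRNA, with robust z-scores and luciferase per cell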
Direction: total luciferase, z-score and total luciferase, % of control: higher = more reporter protein produced; luciferase per cell, z-score: higher = more reporter output per viable cell
Active means: 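An siRNA counts as active if its total luciferase robust z-score exceeds 3; genes with two or more such siRNAs out of three were retested with fresh siRNAs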
Calls: active = raised luciferase; inactive = no rise

gene knocked down,PubChem SID,"total luciferase, z-score","total luciferase, % of control","luciferase per cell, z-score"
KCNC4,SID160743076,0.72,96.2,0.849
KCNC4,SID160743185,0.446,90.8,0.0993
KCNC4,SID160743290,-1.94,43.4,-1.18
KPNA5,SID160776357,-0.684,68.3,0.207
KPNA5,SID160776359,-1.03,61.3,-0.453
KPNA5,SID160776360,-0.468,72.6,-1.39
GNAO1,SID160730983,-1.13,59.4,-1.68
GNAO1,SID160771972,2.34,128,2.46
GNAO1,SID160771980,-0.42,73.5,0.0999
MIPOL1,SID160758220,0.244,86.7,-0.175
MIPOL1,SID160758221,-0.31,75.7,-0.139
MIPOL1,SID160758222,0.449,90.8,1.77
SLC38A11,SID160759083,-0.23,77.3,-0.0888
SLC38A11,SID160759085,2.44,130,1.68
SLC38A11,SID160759086,0.0515,82.9,-0.559
GOLGA2P5,SID160724464,-1.11,59.9,-1.1
GOLGA2P5,SID160743853,2.96,141,2.52
GOLGA2P5,SID160743854,1.13,104,0.514
FAAP100,SID160750270,-0.172,78.5,-0.35
FAAP100,SID160750271,1.43,110,1.51
FAAP100,SID160750272,-1.22,57.7,-1.17
HDAC1,SID160775707,-0.627,69.4,-0.0823
HDAC1,SID160775809,1.83,118,1.92
HDAC1,SID160775915,-0.722,67.5,0.191
